Assay results published in the supplement of paper PMC5393889.
Some of the results follow.

Test system: Caenorhabditis elegans N2
Assay: aldicarb interaction hit call (worm growth perturbed in combination with 10 uM aldicarb in both replicates, no effect as single agent) (binary (1 = interacts)); higher = interacts with aldicarb (growth perturbed)
Conditions: first compound 1.5 µM; aldicarb concentration 10 µM; 6 days; 20 °C

Structure (SMILES)	aldicarb interaction hit call
O=C(c1ccc2oc(CCCc3ccccc3)nc2c1)N1CCC(c2ccncc2)CC1 [wact-311] + CNC(=O)O/N=C/C(C)(C)SC [aldicarb]	inactive: 0
O=C(CC1c2ccccc2Oc2ccccc21)N1CCN(c2ccccn2)CC1 [wact-595] + CNC(=O)O/N=C/C(C)(C)SC [aldicarb]	inactive: 0
CN(CC1CCN(CCc2ccc(F)cc2)CC1)C(=O)c1cc(-c2ccccc2)on1 [wact-247] + CNC(=O)O/N=C/C(C)(C)SC [aldicarb]	inactive: 0
COc1ccc(-c2nc3ccc(N)cc3o2)cc1 [wact-230] + CNC(=O)O/N=C/C(C)(C)SC [aldicarb]	inactive: 0
CNCc1cccc(OCc2ccc(Cl)cc2)c1.Cl [wact-172] + CNC(=O)O/N=C/C(C)(C)SC [aldicarb]	inactive: 0
Fc1ccc(OCc2nc3ccccc3s2)cc1 [wact-15] + CNC(=O)O/N=C/C(C)(C)SC [aldicarb]	inactive: 0
COc1ccc2oc(-c3ccc(OC)c(N)c3)nc2c1 [wact-553] + CNC(=O)O/N=C/C(C)(C)SC [aldicarb]	inactive: 0
O=S(=O)(Nc1cc(Cl)cc(Cl)c1)c1ccc(Cl)cc1 [wact-407] + CNC(=O)O/N=C/C(C)(C)SC [aldicarb]	inactive: 0
Clc1ccc(-c2nc(-c3ccccn3)no2)cc1 [wact-58] + CNC(=O)O/N=C/C(C)(C)SC [aldicarb]	inactive: 0
c1ccc2c(-c3cnnc(N4CCN5CCCC5C4)n3)cccc2c1 (stereo not given) [wact-278] + CNC(=O)O/N=C/C(C)(C)SC [aldicarb]	inactive: 0
S=C(NCc1ccc(Cl)cc1)Nc1ccc(Cl)cc1 [wact-368] + CNC(=O)O/N=C/C(C)(C)SC [aldicarb]	inactive: 0
c1ccc(-c2nc3c(c(N4CCN(Cc5ccoc5)CC4)n2)CCC3)cc1 [wact-335] + CNC(=O)O/N=C/C(C)(C)SC [aldicarb]	inactive: 0
CN(Cc1ccccc1)CC(O)COc1ccc(CNCc2ccc(Cl)cc2)cc1 (stereo not given) [wact-283] + CNC(=O)O/N=C/C(C)(C)SC [aldicarb]	inactive: 0
CCN1CCN(C(=O)Nc2cc(Cl)cc(Cl)c2)CC1 [wact-199] + CNC(=O)O/N=C/C(C)(C)SC [aldicarb]	inactive: 0
CC(=O)c1cccc(OCc2ccc(Cl)cc2)c1 [wact-223] + CNC(=O)O/N=C/C(C)(C)SC [aldicarb]	inactive: 0
O=[N+]([O-])c1ccc(N2CCN(S(=O)(=O)c3ccc(F)cc3)CC2)cc1NC1CC1 [wact-73] + CNC(=O)O/N=C/C(C)(C)SC [aldicarb]	inactive: 0
COc1ccccc1C(=O)NCCC1=CCCCC1 [wact-496] + CNC(=O)O/N=C/C(C)(C)SC [aldicarb]	inactive: 0
COc1ccc(-c2noc(-c3ccccc3)n2)cc1 [wact-574] + CNC(=O)O/N=C/C(C)(C)SC [aldicarb]	inactive: 0
CC(=O)Oc1ccc(-c2nc3ccccc3s2)cc1 [wact-549] + CNC(=O)O/N=C/C(C)(C)SC [aldicarb]	inactive: 0
COc1ccc(-c2noc(-c3ccccc3[N+](=O)[O-])n2)cc1 [wact-502] + CNC(=O)O/N=C/C(C)(C)SC [aldicarb]	inactive: 0
O=C(Nc1ccc([N+](=O)[O-])cc1)N1CCN(c2ccc(F)cc2)CC1 [wact-442] + CNC(=O)O/N=C/C(C)(C)SC [aldicarb]	inactive: 0
C#Cc1cccc(NC(=O)c2ccc(Cl)c(S(=O)(=O)N3CCN(c4ccc(F)cc4)CC3)c2)c1 [wact-350] + CNC(=O)O/N=C/C(C)(C)SC [aldicarb]	inactive: 0
CCCC(=O)c1ccc(N2CCC(C)CC2)c(F)c1 [wact-447] + CNC(=O)O/N=C/C(C)(C)SC [aldicarb]	inactive: 0
COc1cc(CNCc2cccnc2)ccc1OCc1ccc(Cl)cc1Cl.Cl [wact-531] + CNC(=O)O/N=C/C(C)(C)SC [aldicarb]	inactive: 0
O=C(c1ccc(Br)cc1)N1CCN(c2ccc([N+](=O)[O-])cc2)CC1 [wact-381] + CNC(=O)O/N=C/C(C)(C)SC [aldicarb]	active: 1

Two entries drawn at random from the list so far, as already listed:
Structure (SMILES)	aldicarb interaction hit call
O=S(=O)(Nc1cc(Cl)cc(Cl)c1)c1ccc(Cl)cc1 [wact-407] + CNC(=O)O/N=C/C(C)(C)SC [aldicarb]	inactive: 0
CCCC(=O)c1ccc(N2CCC(C)CC2)c(F)c1 [wact-447] + CNC(=O)O/N=C/C(C)(C)SC [aldicarb]	inactive: 0
